Measured values: PubChem BioAssay AID1671190 (National Center for Advancing Translational Sciences (NCATS), 2021)
Several values for one entry are separate records, joined by “and”; a condition that tells them apart may be missing. Identical values can stand only once. Among all 580,000 compounds or so, about 6,100 (1.1%) were called active. The shares of active, inactive and inconclusive entries below differ from those in the screen. The call rests on the fitted dose curve; in most records, active means well fitted inhibition curve with a large enough effect; inconclusive means small, poorly fitted or top-dose-only effect, or another doubt; inactive means no such curve, though single readings can be large or run the other way. Where the call is inconclusive, the potency comes from a doubtful curve fit.

Chains of the proteins cited; added tags and fusions are not shown.
UniProt P18054, whole entry, looked up: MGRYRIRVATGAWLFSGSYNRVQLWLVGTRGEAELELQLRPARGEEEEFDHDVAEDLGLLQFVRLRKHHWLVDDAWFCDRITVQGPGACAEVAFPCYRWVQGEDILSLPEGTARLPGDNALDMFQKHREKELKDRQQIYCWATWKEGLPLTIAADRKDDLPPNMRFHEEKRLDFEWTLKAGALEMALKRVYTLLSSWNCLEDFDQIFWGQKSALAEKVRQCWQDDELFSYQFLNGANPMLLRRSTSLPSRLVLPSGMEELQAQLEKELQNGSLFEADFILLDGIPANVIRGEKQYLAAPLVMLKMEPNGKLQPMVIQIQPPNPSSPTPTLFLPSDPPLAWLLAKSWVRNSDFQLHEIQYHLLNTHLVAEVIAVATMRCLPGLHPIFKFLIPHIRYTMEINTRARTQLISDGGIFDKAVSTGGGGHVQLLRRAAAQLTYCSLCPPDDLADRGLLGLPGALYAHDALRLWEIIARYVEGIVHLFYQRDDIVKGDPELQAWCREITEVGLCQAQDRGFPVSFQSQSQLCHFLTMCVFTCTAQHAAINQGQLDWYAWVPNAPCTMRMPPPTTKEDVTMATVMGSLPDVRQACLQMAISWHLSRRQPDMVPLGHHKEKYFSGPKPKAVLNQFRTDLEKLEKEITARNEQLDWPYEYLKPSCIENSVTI

These compounds were tested against Polyunsaturated fatty acid lipoxygenase ALOX12 (Homo sapiens) (UniProt P18054) (assay: Primary qHTS assay for inhibitors of human arachidonate 12S-lipoxygenase (ALOX12): Round 2). Settings: purified 12hLO, xylenol orange hydroperoxide absorbance; series mostly up to 108 µM.
In short: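 Purified human 12hLO (150 nM final) in 25 mM Hepes, 0.01% Triton X-100, pH 7.0 was preincubated 15 min at room temperature with compound. Then 40 uM arachidonic acid was added, 30 min. Hydroperoxide was read by Fe-XO absorbance ratio 573/405 nm.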
Potency means the concentration at half of the fitted maximal effect.

Structure (SMILES)	Potency
CC(C)Cc1ccc(C(C)NC(=S)NC2CC2)cc1 (stereo unspecified)	inconclusive: 44.7 µM [inhibitor, partial curve, poor fit]
O=c1cc(CN2CCN(CCO)CC2)c2cc(O)c(-c3ccccc3)cc2o1	inconclusive: 44.7 µM [inhibitor, partial curve, poor fit] and inconclusive: 35.5 µM [inhibitor, partial curve, poor fit]
CN1c2cc(C(=O)N3CCN(c4ccccc4F)CC3)ccc2C(=O)N2CCCC21 (stereo unspecified)	inconclusive: 11.2 µM [inhibitor, partial curve, poor fit]
COc1ccc2cc(C(C)C(=O)NC3CCCCC3)ccc2c1 (stereo unspecified)	inconclusive: 56.2 µM [inhibitor, partial curve, poor fit]
COc1ccccc1CNc1cc(-c2cccnc2)ncn1	inconclusive: 2 µM [inhibitor, full curve, poor fit]
CC(C)COC(=O)C(C)Nc1n[nH]c(=S)[nH]c1=O (stereo unspecified)	inconclusive: 35.5 µM [inhibitor, partial curve, poor fit]
COc1ccc(S(=O)(=O)N(c2onc(C)c2Cl)S(=O)(=O)c2ccc(OC)c(OC)c2)cc1OC	active: 17.8 µM
O=C(NCCCN1CCCC1=O)c1cc(S(=O)(=O)N2CCN(c3ccccc3)CC2)ccc1Cl	inconclusive: 25.1 µM [inhibitor, single point]
CCCCC(CC)CN1C(=O)/C(=C/c2ccncc2)SC1=S (stereo unspecified)	inconclusive: 31.6 µM [inhibitor, partial curve, poor fit]
CCC(C)NC(=O)c1ccc2nc(Cc3ccccc3)oc2c1 (stereo unspecified)	inactive
COc1ccccc1CN1CCCn2nc(C)c(-c3cnccc3C)c21	inconclusive: 11.2 µM [inhibitor, full curve]
CCn1c(-c2cc(-c3ccccc3OC)nc3ccccc23)n[nH]c1=S	inconclusive: 100 µM [inhibitor, partial curve, poor fit]
S=C(NCCc1c[nH]c2ccccc12)Nc1ccc(Br)cc1	active: 31.6 µM
CSc1ncccc1C(=O)NCC1Cc2cc(-c3cnccn3)ccc2O1 (stereo unspecified)	inactive
Cc1cc(C)c2oc(-c3ccc(C)c(NC(=S)NC(=O)c4cccs4)c3)nc2c1	inactive
COc1ccccc1NC(=O)/C(C#N)=C/c1coc2ccc(C)cc2c1=O	inconclusive: 126 µM [inhibitor, single point]
COC(=O)CC(N)c1ccccc1 (stereo unspecified)	inactive
CCOC(=O)CCS(=O)(=O)c1nc(-c2ccccc2)cc(C(F)(F)F)n1	inconclusive: 56.2 µM [inhibitor, partial curve, poor fit]
Cc1noc(C)c1C(=O)OCC(=O)N(C)C1(C#N)CCCCC1	inactive
CCOC(=O)Cc1csc(NC(=S)NC(=O)c2ccc(Cl)cc2)n1	inactive
NC(=O)Cn1c(S(=O)(=O)Cc2ccccc2)nc2ccccc21	inconclusive: 44.7 µM [inhibitor, single point]

Structure (SMILES)	Potency
OCCNc1cnc2ccccc2n1	inactive
CCC(=O)c1cc2c(cc1NC(=O)c1ccco1)OCCO2	inconclusive: 6.31 µM [inhibitor, full curve, poor fit]
COc1ccc2sc(-c3ccc(SC)cc3)c(C#CC(C)(C)O)c2c1	inconclusive: 22.4 µM [inhibitor, full curve, poor fit]
CC(C)C12CN3CC(C(C)C)(CN(C1)C3c1c[nH]c3ccccc13)C2=O (stereo unspecified)	inactive
OCCC1CN(Cc2cc3ccccc3o2)CCN1Cc1ccc(F)cc1 (stereo unspecified)	inconclusive: 141 µM [inhibitor, single point]
COc1cccc(C(=O)c2cc3ccc(O)cc3oc2=O)c1	inconclusive: 12.6 µM [inhibitor, full curve] and inconclusive: 22.4 µM [inhibitor, partial curve, poor fit]
COc1cc2c(cc1CNC[C@H]1O[C@@H](n3cc(C)c(=O)[nH]c3=O)C[C@@H]1O)OCO2	inconclusive: 50.1 µM [inhibitor, single point]
COCCCN=C(c1ccco1)n1c(=S)nc(-c2ccco2)n(CCCOC)c1=S	inconclusive: 28.2 µM [inhibitor, partial curve]
O=C(COc1cc(OCC(=O)N2CCNC2=O)c(Cl)cc1Cl)N1CCNC1=O	inconclusive: 50.1 µM [inhibitor, partial curve, poor fit]
CCN(CC)P(=O)(/C(Cl)=C\Nc1c(C)n(C)n(-c2ccccc2)c1=O)N(CC)CC	inconclusive: 56.2 µM [inhibitor, partial curve, poor fit]
COCCNC(=O)C1(C)CCCN(Cc2cc3ccccc3o2)C1 (stereo unspecified)	inconclusive: 56.2 µM [inhibitor, partial curve, poor fit]
COC(=O)/C(=C/Nc1cccc2ccccc12)[N+](=O)[O-]	inconclusive: 22.4 µM [inhibitor, full curve, poor fit]
COc1cccc(C2CCCN2C(=O)NCCn2ccnc2)c1 (stereo unspecified)	inconclusive: 31.6 µM [inhibitor, full curve, poor fit]
O=C1NCc2ccccc2CC12CCCN(Cc1ccc(Cl)s1)C2 (stereo unspecified)	inconclusive: 56.2 µM [inhibitor, partial curve]
CCN(c1ccccc1)S(=O)(=O)c1ccc(N2CCN(c3ccc(O)cc3)CC2)nc1	active: 20 µM
COCCn1c(N2CCN(c3ccc(OC)cc3)CC2)nc2c1c(=O)n(C)c(=O)n2C	inactive
CCOc1ccccc1NC(=O)C1C2C=CC(C2)C1C(=O)O (stereo unspecified)	inconclusive: 35.5 µM [inhibitor, partial curve, poor fit]
COc1cc(C)c(Cl)cc1S(=O)(=O)NCc1ccco1	inconclusive: 100 µM [inhibitor, partial curve, poor fit]
CCn1nc(C(=O)OCC(=O)Nc2nc(-c3ccc(C)c(C)c3)cs2)c2ccccc2c1=O	inactive
O=C(O)CCCN1C(=O)/C(=C/c2ccc(-c3nc4ccccc4s3)o2)SC1=S	inconclusive: 35.5 µM [inhibitor, partial curve, poor fit]
